Measured values as given in US20250346642A1, “NEW SPLICE VARIANT ISOFORM OF VEGF” (CENTRE NATIONAL DE LA RECHERCHE SCIENTIFIQUE (CNRS), priority 2020, published 2025).
No constants are given. Whether binding was seen depends on the method and setting. Some entries that bind do so weakly or less than the wild type.

Amino acid sequences for entries named in this document (tags omitted). Residues count along the entry.
UniProt O60462, residues 23-864: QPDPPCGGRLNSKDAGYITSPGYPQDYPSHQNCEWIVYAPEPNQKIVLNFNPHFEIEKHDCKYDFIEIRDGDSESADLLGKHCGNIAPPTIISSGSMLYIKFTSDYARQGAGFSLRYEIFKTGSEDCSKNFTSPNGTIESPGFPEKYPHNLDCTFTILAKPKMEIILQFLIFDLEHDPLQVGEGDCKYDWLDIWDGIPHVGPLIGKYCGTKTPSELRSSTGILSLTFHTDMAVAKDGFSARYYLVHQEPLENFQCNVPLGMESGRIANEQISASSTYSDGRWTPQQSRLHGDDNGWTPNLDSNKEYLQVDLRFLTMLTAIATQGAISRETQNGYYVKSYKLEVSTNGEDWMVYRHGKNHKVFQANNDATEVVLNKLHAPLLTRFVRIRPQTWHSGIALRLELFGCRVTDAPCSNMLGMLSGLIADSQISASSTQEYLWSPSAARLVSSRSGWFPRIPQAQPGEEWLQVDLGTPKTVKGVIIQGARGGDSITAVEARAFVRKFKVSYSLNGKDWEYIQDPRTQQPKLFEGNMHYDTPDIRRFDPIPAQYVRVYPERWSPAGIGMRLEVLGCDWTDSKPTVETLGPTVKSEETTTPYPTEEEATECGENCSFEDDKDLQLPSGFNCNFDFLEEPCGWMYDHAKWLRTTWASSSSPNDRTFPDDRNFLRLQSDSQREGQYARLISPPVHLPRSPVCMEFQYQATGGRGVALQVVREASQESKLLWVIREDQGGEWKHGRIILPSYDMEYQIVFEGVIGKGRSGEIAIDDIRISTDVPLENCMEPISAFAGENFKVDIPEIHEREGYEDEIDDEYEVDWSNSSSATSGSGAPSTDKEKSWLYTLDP
UniProt O14786, residues 22-644: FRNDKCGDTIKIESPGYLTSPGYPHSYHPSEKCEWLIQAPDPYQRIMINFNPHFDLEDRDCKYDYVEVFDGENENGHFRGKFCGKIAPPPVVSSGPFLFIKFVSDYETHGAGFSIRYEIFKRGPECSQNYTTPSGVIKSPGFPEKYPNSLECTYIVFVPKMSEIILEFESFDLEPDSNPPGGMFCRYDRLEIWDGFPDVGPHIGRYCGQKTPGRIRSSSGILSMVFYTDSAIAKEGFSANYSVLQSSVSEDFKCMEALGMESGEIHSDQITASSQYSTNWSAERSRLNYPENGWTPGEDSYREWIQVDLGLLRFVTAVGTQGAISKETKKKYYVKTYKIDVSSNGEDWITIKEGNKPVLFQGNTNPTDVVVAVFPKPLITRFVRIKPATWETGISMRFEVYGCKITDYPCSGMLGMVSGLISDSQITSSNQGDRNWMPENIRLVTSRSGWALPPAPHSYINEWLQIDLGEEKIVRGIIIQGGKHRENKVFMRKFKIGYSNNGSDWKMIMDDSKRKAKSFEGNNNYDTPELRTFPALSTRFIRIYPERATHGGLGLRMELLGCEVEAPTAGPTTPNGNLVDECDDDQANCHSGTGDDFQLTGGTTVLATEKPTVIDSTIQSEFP
UniProt P35968, residues 20-764: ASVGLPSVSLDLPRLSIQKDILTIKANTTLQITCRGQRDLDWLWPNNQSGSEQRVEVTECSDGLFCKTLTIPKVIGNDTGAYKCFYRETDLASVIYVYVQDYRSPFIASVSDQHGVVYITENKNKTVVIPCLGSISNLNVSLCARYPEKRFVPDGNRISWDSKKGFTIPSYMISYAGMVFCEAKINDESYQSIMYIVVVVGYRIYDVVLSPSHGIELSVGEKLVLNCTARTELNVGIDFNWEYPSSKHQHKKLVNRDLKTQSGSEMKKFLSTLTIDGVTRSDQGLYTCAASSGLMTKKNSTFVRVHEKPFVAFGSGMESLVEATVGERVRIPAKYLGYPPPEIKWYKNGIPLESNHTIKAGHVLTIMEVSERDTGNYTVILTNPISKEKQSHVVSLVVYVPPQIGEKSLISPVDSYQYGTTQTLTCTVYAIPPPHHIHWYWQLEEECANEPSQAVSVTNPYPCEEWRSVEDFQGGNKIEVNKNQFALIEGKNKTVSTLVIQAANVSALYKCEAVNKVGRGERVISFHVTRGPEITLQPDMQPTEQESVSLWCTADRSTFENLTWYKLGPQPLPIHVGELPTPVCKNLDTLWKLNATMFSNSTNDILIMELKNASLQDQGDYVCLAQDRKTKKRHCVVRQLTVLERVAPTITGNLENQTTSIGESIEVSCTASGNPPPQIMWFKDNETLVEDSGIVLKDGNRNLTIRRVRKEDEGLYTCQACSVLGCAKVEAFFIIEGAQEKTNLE
UniProt P17948, residues 27-756: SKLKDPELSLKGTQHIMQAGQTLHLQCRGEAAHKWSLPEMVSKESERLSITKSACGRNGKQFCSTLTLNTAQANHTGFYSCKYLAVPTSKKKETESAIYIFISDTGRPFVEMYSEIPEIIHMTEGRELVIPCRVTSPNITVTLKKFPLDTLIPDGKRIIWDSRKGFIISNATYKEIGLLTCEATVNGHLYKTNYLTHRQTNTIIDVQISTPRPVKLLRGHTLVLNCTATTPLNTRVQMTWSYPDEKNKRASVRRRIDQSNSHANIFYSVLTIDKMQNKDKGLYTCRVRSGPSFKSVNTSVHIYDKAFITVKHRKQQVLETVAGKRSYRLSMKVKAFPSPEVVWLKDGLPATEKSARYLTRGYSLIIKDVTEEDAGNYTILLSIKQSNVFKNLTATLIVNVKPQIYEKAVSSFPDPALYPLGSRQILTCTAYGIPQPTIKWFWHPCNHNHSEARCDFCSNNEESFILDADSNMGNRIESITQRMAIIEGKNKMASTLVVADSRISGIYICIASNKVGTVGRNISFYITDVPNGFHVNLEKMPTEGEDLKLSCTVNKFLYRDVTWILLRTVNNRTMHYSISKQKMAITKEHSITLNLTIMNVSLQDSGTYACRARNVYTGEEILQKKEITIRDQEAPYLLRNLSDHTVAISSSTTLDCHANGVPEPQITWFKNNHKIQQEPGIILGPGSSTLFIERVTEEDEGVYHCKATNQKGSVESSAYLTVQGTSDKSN

Legend:
[1] = biological target: neuropilin 2 (UniProt O60462); assay: saturation binding experiment
[2] = biological target: neuropilin 1 (UniProt O14786); assay: saturation binding experiment
[3] = biological target: T1, VEGFR3 (UniProt P35916 25-776, limits assumed); assay: saturation binding experiment (FIG. 5A legend)
T1 sequence (looked up): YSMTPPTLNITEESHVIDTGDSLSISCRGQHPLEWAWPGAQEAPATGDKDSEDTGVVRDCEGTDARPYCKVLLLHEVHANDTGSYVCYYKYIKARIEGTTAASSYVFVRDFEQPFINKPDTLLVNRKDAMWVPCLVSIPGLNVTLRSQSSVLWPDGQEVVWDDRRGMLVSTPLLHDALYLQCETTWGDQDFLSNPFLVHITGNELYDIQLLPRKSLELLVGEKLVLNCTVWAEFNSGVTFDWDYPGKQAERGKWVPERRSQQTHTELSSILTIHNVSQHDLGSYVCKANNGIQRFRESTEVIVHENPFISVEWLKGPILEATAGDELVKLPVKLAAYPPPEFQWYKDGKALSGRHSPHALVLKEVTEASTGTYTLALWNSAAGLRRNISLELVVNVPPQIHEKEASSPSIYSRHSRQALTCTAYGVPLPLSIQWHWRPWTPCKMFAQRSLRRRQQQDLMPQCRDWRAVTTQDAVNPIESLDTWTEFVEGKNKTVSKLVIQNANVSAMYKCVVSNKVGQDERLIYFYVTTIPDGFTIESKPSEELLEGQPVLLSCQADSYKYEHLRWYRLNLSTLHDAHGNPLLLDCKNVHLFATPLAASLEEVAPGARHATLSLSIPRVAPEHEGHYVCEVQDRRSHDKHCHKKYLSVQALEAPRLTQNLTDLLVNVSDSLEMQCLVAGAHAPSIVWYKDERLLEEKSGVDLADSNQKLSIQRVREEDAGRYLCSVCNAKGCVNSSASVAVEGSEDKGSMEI

[4] = biological target: T2, VEGFR2 (UniProt P35968 20-764, limits assumed); assay: saturation binding experiment (FIG. 5A legend)
T2 construct: also called VEGFR2/KDR

[5] = biological target: T3, VEGFR1 (UniProt P17948 27-756, limits assumed); assay: saturation binding experiment (FIG. 5A legend)
T3 construct: also called VEGFR1/Flt1

[6] = biological target: neuropilin 2 (UniProt O60462); assay: saturation binding experiment (FIG. 5A' legend)
[7] = biological target: neuropilin 1 (UniProt O14786); assay: saturation binding experiment (FIG. 5A' legend)

Measured: binding

B1: recombinant VEGF222/NF protein produced in HEK293 cells by ProteoGenix (ligand)
chain: GSHHHHHHSGLEVLFQGPAPMAEGGGQNHHEVVKFMDVYQRSYCHPIETLVDIFQEYPDEIEYIFKPSCVPLMRCGGCCNDEGLECVPTEESNITMQIMRIKPHQGQHIGEMSFLQHNKCECRPKKDRARQENPCGPCSERRKHLFVQDPQTCKCSCKNTDSRCKARQLELNERTCSLCFPFPSDVTSRGGEPGRRKEPPSGFREPDLSPGKTDTERSIQKPRCRHHTITIDRTVLNPET
notes: also called VEGF222 New Form; rVEGF222/NF
binds: all assays above
